Out of some 24,000 compounds screened, fewer than 10 were called active. The inconclusive results got no clear call from the source; some entries with a clear call stand among them for comparison.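 How the source made its calls: active means fluorescent ligand binding to cells raised by more than 40% of the manganese-induced maximum; inconclusive means compound's own fluorescence above 85% of the ligand control signal; inactive means the rest.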
Each compound was assayed against Integrin alpha-4 (Homo sapiens) (UniProt P13612) (assay: enhancers of LDV-FITC binding to VLA-4 integrin, primary screen, Jurkat cells, flow cytometry (AID 528;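 on activation: 0% = ligand binding without compound and 100% = manganese-stimulated maximal binding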)). Details: active compounds read high, screened at 10 µM (by protocol).

Protein sequences, listed by entry. Tags and fused reporters are not part of them.
UniProt P13612, whole entry, looked up: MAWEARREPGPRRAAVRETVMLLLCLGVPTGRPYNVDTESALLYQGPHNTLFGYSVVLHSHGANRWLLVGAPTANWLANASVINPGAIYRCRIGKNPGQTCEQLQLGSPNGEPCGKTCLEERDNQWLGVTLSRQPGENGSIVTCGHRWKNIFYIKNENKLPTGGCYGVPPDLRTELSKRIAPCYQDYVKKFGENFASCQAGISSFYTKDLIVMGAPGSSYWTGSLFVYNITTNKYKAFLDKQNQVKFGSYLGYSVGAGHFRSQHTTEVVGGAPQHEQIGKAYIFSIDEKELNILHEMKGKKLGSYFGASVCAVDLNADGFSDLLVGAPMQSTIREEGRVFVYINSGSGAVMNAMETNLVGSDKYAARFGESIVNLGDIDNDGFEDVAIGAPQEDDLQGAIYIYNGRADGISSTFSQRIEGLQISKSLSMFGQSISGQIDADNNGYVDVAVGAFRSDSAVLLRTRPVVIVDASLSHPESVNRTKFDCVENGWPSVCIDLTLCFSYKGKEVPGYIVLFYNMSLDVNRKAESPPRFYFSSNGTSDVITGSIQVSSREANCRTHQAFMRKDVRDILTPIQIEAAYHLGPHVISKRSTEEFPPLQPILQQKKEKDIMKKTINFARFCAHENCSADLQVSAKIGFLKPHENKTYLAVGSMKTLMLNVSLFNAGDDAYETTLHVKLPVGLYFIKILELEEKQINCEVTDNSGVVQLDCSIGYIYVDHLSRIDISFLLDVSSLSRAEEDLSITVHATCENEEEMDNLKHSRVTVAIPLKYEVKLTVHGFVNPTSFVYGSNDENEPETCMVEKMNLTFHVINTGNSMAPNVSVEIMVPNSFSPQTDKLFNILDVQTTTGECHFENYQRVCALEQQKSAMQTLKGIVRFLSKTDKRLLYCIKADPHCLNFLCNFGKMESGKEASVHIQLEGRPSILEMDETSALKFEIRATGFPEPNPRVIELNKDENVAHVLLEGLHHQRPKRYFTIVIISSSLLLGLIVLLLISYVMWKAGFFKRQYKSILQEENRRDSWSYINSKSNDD

Row | Structure (SMILES) | activation
1 | CCCCC[C@H](O)/C=C/[C@H]1C=CC(=O)[C@@H]1C/C=C\CCCC(=O)O | active: 42%
2 | Cc1cc(Nc2cccc(C)c2C)n2ncnc2n1 | inconclusive
3 | CC1CCN(c2c(NCc3ccc(C(=O)N4c5ccccc5CC4C)cc3)c(=O)c2=O)CC1 (stereo not drawn) | inactive: 1.3%
4 | CC(=O)Nc1ccc(NS(=O)(=O)c2cc(C)sc2C)cc1 | inconclusive
5 | CCOC(=O)N1CCN(C(=O)c2ccc3c(=O)n(CCc4ccccc4)c(=S)[nH]c3c2)CC1 | inconclusive
6 | CCn1cc(C(=O)NCc2ccc3c(c2)OCO3)c2cc(OC)c(OC)cc2c1=O | inconclusive
7 | COc1cccc(-c2cc(C(=O)Nc3cccc(O)c3)no2)c1 | inconclusive
8 | Cc1oc(-c2cccc(Cl)c2)nc1CN1CCC(C(=O)NCC2CCCO2)CC1 (stereo not drawn) | inconclusive
9 | CN1CCN(CC(O)COc2ccc(OCC(O)CN3CCN(C)CC3)cc2)CC1 (stereo not drawn) | inconclusive
10 | O=C1C2CCCN2C(c2ccc(F)cc2)N1c1ccc(Cl)cc1 (stereo not drawn) | inconclusive
11 | COc1cc2c(C(=O)NCc3ccc(C)o3)cn(CC(C)C)c(=O)c2cc1OC | inconclusive
12 | O=C(NCC1CCCO1)c1coc2nc3ccccc3nc12 (stereo not drawn) | inconclusive
13 | CCN(CCCNC(=O)CCNC(=O)Cn1cnc2ccccc2c1=O)c1ccccc1 | inconclusive
14 | C=CCNC(=O)CN(c1cccc(Br)c1)S(C)(=O)=O | inactive: -4%
15 | Cc1cc(NC(=O)CCCN2C(=O)c3cccnc3C2=O)no1 | inconclusive
16 | CCOc1ccc(N(CCC#N)S(=O)(=O)c2ccc(OC)cc2)cc1 | inconclusive
17 | COC(=O)c1ccc(CSc2ncnc3ccccc23)o1 | inconclusive
18 | Cc1cc(=S)[nH]c2ccccc12 | inconclusive
19 | COc1ccc(CCNC(=O)c2ccc3c(=O)n(Cc4ccco4)c(=S)[nH]c3c2)cc1OC | inconclusive
20 | Cn1cccc1Cc1nnc(SCC(=O)N2CCN(c3ccccc3)CC2)n1-c1ccc(F)cc1 | inconclusive
21 | Cc1ccc(Nc2cc(C)nc3nc(C)nn23)c(C)c1 | inconclusive
22 | COCCCNC(=O)c1ccccc1NS(=O)(=O)c1ccc(C)cc1 | inactive: 3%
23 | O=C(c1cc2c(=O)oc3ccccc3c2s1)N1CCOCC1 | inconclusive
24 | Cc1cccc2[nH]c3c(N4CCC5(CC4)OCCO5)ncnc3c12 | inconclusive
25 | Cn1c(Cc2ccccc2)nnc1SCC(=O)c1ccc(Br)s1 | inactive: 5.5%
26 | CCN(C(=O)c1cn(C)c(=O)c2cc(OC)c(OC)cc12)c1cc(C)ccc1C | inactive: 1%
27 | COc1cccc(-c2nc(CS(=O)CC(=O)NCc3ccc4c(c3)OCO4)c(C)o2)c1 (stereo not drawn) | inconclusive
28 | COc1ccc(NC(=O)C2CCN(S(=O)(=O)c3cccc4cccnc34)CC2)cc1OC | inconclusive

Structural class, the entries above containing bromine (two)
Row | Structure (SMILES) | activation
14 | C=CCNC(=O)CN(c1cccc(Br)c1)S(C)(=O)=O | inactive: -4%
25 | Cn1c(Cc2ccccc2)nnc1SCC(=O)c1ccc(Br)s1 | inactive: 5.5%
